# Data reported in the supplement of paper PMC3334620.
# Whole data set: some 33,000 sequences, median “E-score (-0.5 to 0.5)” near -0.016, cut for the highest 2% near 0.3. This is one part of the list.
# Biological target: T1, Yer184c (UniProt P39961)
# T1 sequence: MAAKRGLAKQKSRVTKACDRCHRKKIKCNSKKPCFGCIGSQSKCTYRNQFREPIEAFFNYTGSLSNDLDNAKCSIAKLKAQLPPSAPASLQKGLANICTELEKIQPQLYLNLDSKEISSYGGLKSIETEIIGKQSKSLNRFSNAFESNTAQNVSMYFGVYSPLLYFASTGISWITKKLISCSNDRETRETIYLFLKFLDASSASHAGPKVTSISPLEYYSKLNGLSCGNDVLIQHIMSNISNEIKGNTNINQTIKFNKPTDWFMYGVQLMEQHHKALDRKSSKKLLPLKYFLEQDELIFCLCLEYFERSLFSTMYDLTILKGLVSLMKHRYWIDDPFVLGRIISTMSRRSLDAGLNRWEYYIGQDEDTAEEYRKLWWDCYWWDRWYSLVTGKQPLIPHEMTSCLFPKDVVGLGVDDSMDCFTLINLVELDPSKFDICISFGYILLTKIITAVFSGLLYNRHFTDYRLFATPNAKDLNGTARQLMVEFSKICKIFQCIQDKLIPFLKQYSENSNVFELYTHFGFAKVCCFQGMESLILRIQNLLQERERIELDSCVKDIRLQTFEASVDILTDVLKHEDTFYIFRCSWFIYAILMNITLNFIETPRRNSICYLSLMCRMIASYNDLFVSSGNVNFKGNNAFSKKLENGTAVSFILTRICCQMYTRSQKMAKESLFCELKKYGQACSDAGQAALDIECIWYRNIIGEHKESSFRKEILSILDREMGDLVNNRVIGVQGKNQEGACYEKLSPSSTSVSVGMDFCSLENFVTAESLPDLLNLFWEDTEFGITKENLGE
# Test: PBM E-score (8-mer binding enrichment) (E-score (-0.5 to 0.5)); higher = stronger / more preferred TF binding
# Details: protein concentration: 100 nM; construct: GST-full length
# Summary of the method: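 Each ungapped eight-base word and its reverse complement, pooled, received an E-score from the Universal PBM Analysis Suite. Underlying scans, normalised with masliner, recorded fluorescent anti-GST bound to GST-tagged yeast transcription factors. These were applied at about 100-200 nM to universal all-10-mer Agilent arrays double-stranded by primer extension.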
row,Sequence,PBM E-score
1,ATTAACCA,-0.114
2,TAGGGGGA,-0.234
3,AACTGGTA,0.0058
4,TTTCAAAA,0.247
5,TCAGCAGA,0.0479
6,GTTCCGAA,0.369
7,AGTACACT,-0.0934
8,CGCTCGTA,-0.183
9,TAACTGCA,0.00907
10,CTACAATA,0.0373
11,AAGTGAGA,-0.124
12,GCTACAAC,0.0298
13,TAGCGGGA,-0.0686
14,ATTCTCTC,-0.0372
15,ATCATCAA,0.114
16,TCGATGAA,0.134
17,CGGTCTCA,0.0469
18,GTCCCTCA,-0.31
19,AGTTAAAT,0.103
20,GTCAAGCA,-0.115
21,TAAGTGGA,0.138
22,AGTCGCTG,-0.213
23,ATTCAACC,0.0144
24,ACAGTAAG,-0.0845
25,CCGGAAGC,0.329

row,Sequence,PBM E-score
1,ATCTCCAA,-0.059
2,CTTGATGC,-0.0365
3,AGATGGAG,-0.0905
4,AGGTGCCA,-0.18
5,ATAATGAT,0.162
6,CTTTCTCA,0.1
7,GAAAAAAC,0.222
8,ATACGGTA,0.0926
9,ATACCACA,0.0277
10,GCGGTAGC,-0.117
11,CACCTGGC,-0.23
12,GAGTAGGC,-0.0672
13,TCGGCAGA,0.274
14,ACCCAACC,-0.191
15,AAGAACTT,0.198
16,GAGACGAA,0.0967
17,CTTCGTTC,-0.21
18,CGAGACCC,-0.0577
19,CGTGTTCC,0.279
20,GCGTCTCC,-0.0943
21,ACCGCTTC,-0.0676
22,CCAGGTGA,-0.242
23,AGGGGGAC,-0.32
24,ACCTAACC,0.0931
25,CCAATCTC,0.0125

row,Sequence,PBM E-score
1,ATGGTATG,-0.237
2,GTATCTTA,0.197
3,CCAAATAA,0.135
4,AAATCAAG,-0.0251
5,ACATGACA,0.021
6,CTCATGTC,-0.121
7,GCAGGTGA,-0.136
8,AACGGCTT,-0.0158
9,AGCCATGG,-0.226
10,TACGGCTA,0.117
11,ATCGGTTC,0.152
12,AGCCTTCC,-0.109
13,CAGATGAG,-0.00883
14,CTAGGGCC,-0.119
15,CCGATCAC,0.264
16,TAAACCGA,0.165
17,AGGGCCAT,-0.296
18,AGCCCTGC,-0.268
19,GTTCGTCA,-0.0695
20,CGTGGGGA,-0.146
21,AGTAGATG,0.0588
22,CAGGCCAC,-0.163
23,AGCTCCGA,0.251
24,CGGGCCCG,0.351
25,CCGCTAAG,0.103

row,Sequence,PBM E-score
1,CAGACGCG,-0.121
2,ACCGGGAA,0.28
3,GGGAGTAA,0.109
4,CTATTCAA,0.0942
5,AGGGGTAC,-0.193
6,GTGACACA,0.0437
7,ACTCATTG,-0.146
8,AGCTTGGC,-0.0541
9,AGCACGCG,0.0315
10,AGAGCTGG,-0.0867
11,GGGGCCAA,-0.241
12,GACTGTAA,-0.0482
13,GGAGCCCA,-0.262
14,GCCTTTGA,-0.0799
15,GTAGTTAA,0.0718
16,ACTTAGGA,-0.0768
17,GCTATAGA,-0.0355
18,CGGACCTC,0.156
19,CCGGAGTC,0.235
20,AGTTTAAC,-0.053
21,GATGCGGC,0.0571
22,CGCTTGGC,-0.215
23,CGAGACTA,-0.0281
24,AGTAGACC,-0.0973
25,CACCCCTA,-0.296

row,Sequence,PBM E-score
1,CTGCCTGC,-0.179
2,GTAGCCCA,-0.285
3,GCAGGGGA,-0.385
4,CGGAACGC,0.241
5,AGCCTGGC,-0.283
6,ATACCCTA,-0.0562
7,CGTTGCAA,0.138
8,AATCTCTA,-0.0742
9,GCTAAGAC,0.0763
10,CTGTATCC,0.0659
11,CCGTTGGC,0.13
12,ATAAACGC,-0.0379
13,CAAGCTCG,0.212
14,CACCGCCG,0.0457
15,CAATATGA,0.0198
16,AATGTACC,-0.119
17,TGAACTAA,-0.00313
18,CTCGAGAG,-0.113
19,GGATAACC,-0.00491
20,AAGTTATC,0.04
21,CCTACTCA,-0.12
22,CGTTTCCC,0.0265
23,GTAGGAGA,-0.181
24,CCCAGTAG,-0.0348
25,GGCATAAA,0.14

row,Sequence,PBM E-score
1,AAAGACAG,0.0541
2,ACAGTGAA,0.0796
3,GACCTGAC,0.0117
4,AGAGGGCG,-0.0985
5,GAGGCCCA,-0.319
6,AGCCCCTA,-0.311
7,AAGCGGAG,-0.0887
8,CTCCGTAA,0.0982
9,CGCACAGA,-0.0315
10,CGCGACAG,-0.181
11,CCCATCTC,-0.19
12,CCCCCAAA,-0.319
13,TACCGCAA,0.105
14,CCTCTGAG,-0.0893
15,ACACGTTG,-0.15
16,AGAAACGA,0.0949
17,ATGCCCCG,-0.139
18,ACATCCCC,-0.18
19,GAGATCGC,-0.0683
20,ACGGTGAG,-0.113
21,CATCCTGA,0.0635
22,CCATGGTA,-0.264
23,CATGCTTA,-0.103
24,TCTAATCA,0.158
25,GGATTTTA,-0.00628

row,Sequence,PBM E-score
1,AAGCGTCT,-0.258
2,CTACGTAG,-0.039
3,AAATCCTG,0.0774
4,CACCGTAC,-0.115
5,CCTAAAGA,-0.164
6,GTAATCGA,0.0544
7,ACGAACAC,0.22
8,AGTGGCTA,-0.0424
9,GAGATTCA,-0.0108
10,TGGAAACA,-0.0604
11,AGGCCTTA,-0.231
12,TATTATCA,0.159
13,CAATGACG,-0.0656
14,ATGTAAGC,-0.0898
15,AAGATCTT,0.031
16,CTCTGCAG,-0.0973
17,CGGCGTCA,-0.0269
18,CTTTTTAA,0.0456
19,CCCTTGAC,-0.203
20,CAGGACTA,-0.0635
21,CGATTTCA,-0.0128
22,CAACTATG,0.0212

# Some values from the list:
# PBM E-score with AGCCATGG is entered as -0.226
# PBM E-score with GATGCGGC is entered as 0.0571
# PBM E-score with CCGGAGTC is entered as 0.235
# PBM E-score with GGATTTTA is entered as -0.00628
